In PubChem BioAssay AID449728 (The Scripps Research Institute Molecular Screening Center, 2010):
This is a selection; strong and weak results do not stand in their true shares. Activity calls are given as the source filed them.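 How the source made its calls: active means inhibition above the campaign's mean inhibition across all tested compounds plus 3 SD (cut at about 9.9% in these data); inactive means the rest.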

Assay: E. coli V3065 growth inhibition, primary screen, counter-screen for AddAB inhibitor project, absorbance, OD600 (AID 449728);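 further: uninfected addAB+ strain grown without phage in ampicillin broth; 0% = DMSO wells and 100% = ciprofloxacin 0.95 µg/ml wells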
Conditions: 18 h, at 11.9 µM, stronger effect = higher value

SMILES | inhibition
Oc1cc2c(c(Cl)c1O)CCNCC2c1ccccc1 (configuration not stated) | active: 10.7%
Cc1c2cc(O)c(=O)cc-2oc2cc(O)c(O)cc12 | active: 11.1%
